The other results are listed elsewhere or left out. The main result of the screen is listed elsewhere. These columns were measured beside it and carry no call. Most of these compounds were active or inconclusive in the main read-out, so they are no random draw. Potencies come from curve fits of mixed quality, noted in brackets.
Assay: qHTS Assay for Modulators of Lamin A Splicing
Details: HeLa LMNA splicing GFP/RFP minigene ratio, 48 h
Method in brief: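 S3 HeLa cells stably expressing lamin A-EGFP splicing minigene plus DsRed2, 600 cells/well, 48 h compound exposure at 37C. Laser-scanning cytometry; analysed as GFP (500-530 nm)/RFP (575-640 nm) total intensity ratio; 0.5% DMSO vehicle.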

[1] = measured here: GFP splicing reporter channel
[2] = measured here: RFP viability control channel

SMILES: CCOc1ccc2nc(SC3CC(=O)N(c4ccc(OC)cc4OC)C3=O)sc2c1 (stereo not drawn)
- AC50 [1]: 2.82 µM [falling, partial curve, poor fit]

SMILES: COc1ccc(CC(=O)NC(C)c2nnc(SCCC(=O)Nc3ccccc3)n2C)cc1 (stereo not drawn)
- AC50 [1]: 1 µM [falling, full curve, poor fit]
- AC50 [2]: 4.47 µM [falling, partial curve, poor fit]

SMILES: COc1ccc(Cn2c(=S)[nH]c3cc(C(=O)NCc4cccnc4)ccc3c2=O)cc1
- AC50 [2]: 5.62 µM [falling, single point]

SMILES: CCc1nnc(NS(=O)(=O)c2ccc(NC(=S)NC(=O)/C=C/c3ccccc3)cc2)s1
- AC50 [2]: 14.1 µM [rising, single point]

SMILES: CC(=O)O[C@H]1C[C@@]2(C)[C@@H](C[C@@H](O)[C@H]3[C@@]4(C)CC[C@@H](O)[C@@H](C)C4CC[C@@]32C)/C1=C(\CCC=C(C)C)C(=O)O (stereo partly drawn)
- AC50 [1]: 11.2 µM [falling, partial curve, poor fit]
- AC50 [2]: 15.8 µM [falling, single point]

SMILES: Cn1cc(Br)c(C(=O)Nc2ncc(Br)s2)n1
- AC50 [1]: 1 µM [falling, full curve, poor fit]
- AC50 [2]: 0.708 µM [falling, partial curve, poor fit]

SMILES: CCOC(=O)N1CCN(S(=O)(=O)c2ccc(F)c(C(=O)Nc3cccc(Cl)c3C)c2)CC1
- AC50 [2]: 14.1 µM [rising, partial curve]

SMILES: C/C(=N\NC(=O)C(C)Oc1ccc([N+](=O)[O-])cc1)c1ccccn1 (stereo not drawn)
- AC50 [1]: 3.16 µM [falling, full curve]
- AC50 [2]: 6.31 µM [falling, full curve]

SMILES: CC(O)COc1ccc(/C(=N/O)c2ccccc2)cc1 (stereo not drawn)
- AC50 [1]: 12.6 µM [rising, single point]

SMILES: COc1ccc(-n2nnnc2SCC(=O)c2cccc(OC)c2)cc1
- AC50 [2]: 31.6 µM [rising, single point]

SMILES: COc1cccc(CSc2nc3ccccc3[nH]2)c1
- AC50 [2]: 10 µM [rising, partial curve]

SMILES: O=C(CN1CCOCC1)Nc1ccc(N2CCN(c3ccccc3)CC2)c(F)c1
- AC50 [1]: 8.91 µM [falling, partial curve, poor fit]

SMILES: O=C(O)C1CC=CCC1C(=O)Nc1ccc(S(=O)(=O)N2CCCc3ccccc32)cc1 (stereo not drawn)
- AC50 [2]: 7.08 µM [rising, full curve]

SMILES: Cn1cc(CCNC(=O)CC2C(=O)NCCN2Cc2cccc(Oc3ccccc3)c2)cn1 (stereo not drawn)
- AC50 [1]: 0.00891 µM [falling, full curve, poor fit]

SMILES: O=C(Nc1nc(=O)[nH]s1)c1ccccc1
- AC50 [2]: 0.0282 µM [falling, full curve, poor fit]

SMILES: Cn1c(=S)n(C)c2ccccc21
- AC50 [1]: 0.0224 µM [rising, full curve, poor fit]

SMILES: O=C(c1cc(COc2ccc3ncccc3c2)on1)N1CCC(O)CC1
- AC50 [1]: 17.8 µM [falling, partial curve]
- AC50 [2]: 20 µM [falling, partial curve, poor fit]

SMILES: CNC(=O)c1ccsc1NC(=O)c1ccc(S(=O)(=O)N2CCc3ccccc32)cc1
- AC50 [1]: 35.5 µM [rising, single point]
- AC50 [2]: 35.5 µM [rising, single point]

SMILES: COc1ccc(C(=O)N2CCC(c3nc4ccccc4o3)CC2)cc1
- AC50 [1]: 0.0562 µM [falling, full curve, poor fit]
- AC50 [2]: 0.01 µM [falling, full curve, poor fit]

SMILES: Cc1cccc2sc(NC(=O)CSCc3ccccc3)nc12
- AC50 [1]: 14.1 µM [rising, single point]
- AC50 [2]: 35.5 µM [rising, single point]

SMILES: CSc1nc(-c2ccc(C)cc2)nc(C(Cl)Cl)n1
- AC50 [1]: 4.47 µM [falling, partial curve]
- AC50 [2]: 5.62 µM [falling, single point]

SMILES: COc1ccc(S(=O)(=O)c2c(Nc3ccc(F)cc3)sc(C(=O)c3ccc(C)cc3C)c2N)cc1
- AC50 [1]: 3.98 µM [rising, partial curve]
- AC50 [2]: 5.01 µM [rising, single point]

SMILES: COc1ccc(Cn2nnnc2C(CC(C)C)N2CCN(c3ccccc3)CC2)cc1 (stereo not drawn)
- AC50 [2]: 15.8 µM [rising, single point]

SMILES: O=C(c1nnsc1S(=O)(=O)c1ccc(Cl)cc1)N1CCOCC1
- AC50 [2]: 0.0224 µM [rising, full curve, poor fit]

SMILES: O=C(Nc1ccc(O)cc1)c1ccccc1O
- AC50 [2]: 14.1 µM [rising, partial curve]

SMILES: CCOc1ccc(C(CCc2ccccc2)NC(=O)c2ccc(OC)c(OC)c2)cc1OCC (stereo not drawn)
- AC50 [1]: 22.4 µM [rising, partial curve, poor fit]
- AC50 [2]: 31.6 µM [rising, single point]

SMILES: COc1ccccc1/C=C/C(=O)NC(=S)NCC1CCCO1 (stereo not drawn)
- AC50 [2]: 12.6 µM [rising, partial curve, poor fit]

SMILES: Cn1c(C(=O)NCCCN2CCN(c3ccccc3F)CC2)cc2c(=O)n(C)c3ccccc3c21
- AC50 [2]: 35.5 µM [rising, single point]

SMILES: CCOc1ccc2nc(N3CCC(C(=O)N4CCN(c5ccccn5)CC4)CC3)sc2c1
- AC50 [1]: 12.6 µM [rising, partial curve]
- AC50 [2]: 11.2 µM [rising, partial curve]

SMILES: CN(C)c1ccc(/C=C/C(=O)c2cccc(Br)c2)cc1
- AC50 [1]: 28.2 µM [falling, single point]
- AC50 [2]: 35.5 µM [falling, single point]

SMILES: Cc1[nH]c2ccc(F)cc2c(=O)c1SC(F)(F)C(F)F
- AC50 [2]: 31.6 µM [rising, single point]

SMILES: O=c1cc(Nc2ccc3c(c2)OCCO3)[nH]c(=O)n1C1CCCCC1
- AC50 [2]: 11.2 µM [rising, partial curve]

SMILES: O=C(NCc1ccccn1)c1ccccc1-c1ccccc1
- AC50 [1]: 17.8 µM [rising, partial curve]
- AC50 [2]: 0.00562 µM [rising, full curve, poor fit]

SMILES: COc1coc(C(O)C[N+](=O)[O-])cc1=O (stereo not drawn)
- AC50 [1]: 1.26 µM [falling, partial curve, poor fit]

Source: PubChem BioAssay AID1487 (National Center for Advancing Translational Sciences (NCATS), 2009)
